The supplement of paper PMC4749390
Where a name gives a salt, the structure may show the parent alone. The list shows a part of the results. This data set is noisy: repeats of one test often differ as much as different tests do.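 JEG3 cells stably carry tetracycline-induced wild-type human LRH-1, a heavily sumoylated nuclear receptor. APOC3 and MUC1 are SUMO-sensitive transcripts, raised by SUMO-less LRH-1 or UBC9 knockdown, measured by RT-qPCR against TBP and DMSO controls. A robust Z-score above +2 or below -2 marked a primary hit before toxicity and TBP filtering.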

test system: JEG3 expressing hLRH-1; experiment: MUC1 transcript change (ddCt vs TBP and DMSO), Z-score over library; higher = higher MUC1 expression; details: 10 µM; time (hr): 24

SMILES	MUC1 transcript change (Z-score)
O=c1n(Cl)c(=O)n(Cl)c(=O)n1Cl [symclosene]	-0.113
C[C@@H]([C@H](O)c1ccccc1)N(C)C [(-)-Ephedrine, N-Methyl]	-0.647
O=C(O)Cc1ccccc1 [sodium phenylacetate]	0.584
Oc1cccc2cccnc12 [oxyquinoline]	0.792
CC(C)(O)C(Cl)(Cl)Cl [chlorobutanol]	1.46
COc1ccc(C(CN(C)C)C2(O)CCCCC2)cc1 (stereo not drawn) [venlafaxine hydrochloride]	0.758
Cc1ncc(CNC(=O)N(CCCl)N=O)c(N)n1 [nimustine]	0.212
O=P1(NCCCl)OCCCN1CCCl (stereo not drawn) [ifosfamide]	0.611
O=C(O)c1nn(Cc2ccc(Cl)cc2Cl)c2ccccc12 [lonidamine]	0.0163
O=C1C[C@@H]2OCC=C3CN4CC[C@]56c7ccccc7N1[C@H]5[C@H]2[C@H]3C[C@H]46 [strychnine]	0.0505
CNc1ccc(C(=O)CC(O)CCC(C)C2OC(=O)CC(O)CC(=O)CC(O)CC(O)CC(O)CC(O)CC3(O)CC(O)C(C(=O)OC)C(CC(O[C@@H]4O[C@H](C)[C@@H](O)[C@H](N)[C@@H]4O)/C=C/C=C/C=C/C=C/C=C/C=C/C=C/C2C)O3)cc1 (stereo partly drawn) [mepartricin]	-0.51
NCCc1cc(O)c(O)cc1O [oxidopamine hydrochloride]	-0.958
C[N+](C)(C)CCCCCCCCCC[N+](C)(C)C [Decamethonium dibromide]	1.09
CC(=O)OC1CN2CCC1CC2 (stereo not drawn) [aceclidine hydrochloride]	0.714
C[C@]12CCC(=O)C=C1CCC1C2CC[C@@]2(C)C1CC[C@@H]2O (stereo partly drawn) [testosterone]	-0.0531
C=C[C@H]1CN2CC[C@H]1C[C@H]2[C@H](O)c1ccnc2ccccc12 [cinchonidine]	0.221
Oc1cc(Cl)ccc1Oc1ccc(Cl)cc1Cl [triclosan]	0.154
NC(=O)c1cc([N+](=O)[O-])cc([N+](=O)[O-])c1 [nitromide]	0.647
Nc1ccncc1 [4-Aminopyridine]	-0.218
O=[N+]([O-])O[C@H]1CO[C@H]2[C@@H]1OC[C@H]2O[N+](=O)[O-] [isosorbide dinitrate]	0.573
CCOC(=O)c1cncn1[C@H](C)c1ccccc1 [etomidate]	-0.132

SMILES	MUC1 transcript change (Z-score)
CC(=O)Nc1cc([As](=O)(O)O)ccc1O [acetarsol]	0.756
O=C1C=C2C=C[C@@H]3C[C@@]2(O1)[C@H]1CCCCN31 [securinine]	-2.41
O=C(CCCN1CCC2(CC1)C(=O)NCN2c1ccccc1)c1ccc(F)cc1 [Spiperone hydrochloride]	1.3
C[N+]12CCC(CC1)C(OC(=O)C(O)(c1ccccc1)c1ccccc1)C2 (stereo not drawn) [clidinium bromide]	0.263
CN1C2C[C@H](OC(=O)[C@H](CO)c3ccccc3)C[C@H]1[C@H]1OC21 (stereo partly drawn) [scopolamine hydrobromide]	0.822
CC(=O)O[C@H]1CC[C@@]2(C)C(=CCC3C2CC[C@]2(C)C(=O)CCC32)C1 (stereo partly drawn) [praesterone acetate]	0.378
C[C@@H]1C[C@@H]([C@H](O)CC2CC(=O)NC(=O)C2)C(=O)[C@@H](C)C1 [cycloheximide]	1.72
CC(=O)[C@H]1CCC2[C@@H]3CCC4C[C@H](O)CC[C@]4(C)C3CC[C@@]21C (stereo partly drawn) [eltanolone]	-0.796
CN1C[C@H](C(=O)N[C@]2(C)O[C@@]3(O)[C@@H]4CCCN4C(=O)[C@H](Cc4ccccc4)N3C2=O)C[C@@H]2c3cccc4[nH]cc(c34)C[C@H]21 [Dihydroergotamine methanesulfonate]	0.763
CC(=O)OCC1=C(C(=O)O)N2C(=O)[C@@H](NC(=O)CCCC(N)C(=O)O)C2SC1 (stereo partly drawn) [cephalosporin c sodium]	-0.439
COc1ccc2c(c1)[C@]13CCCC[C@@H]1[C@H](C2)N(C)CC3 [dextromethorphan hydrobromide]	0.534
N[C@@H](Cc1ccc(N(CCCl)CCCl)cc1)C(=O)O [melphalan]	-0.672
C=CC[C@]1(O)CC[C@H]2[C@@H]3CCC4=CC(=O)CCC4=C3C=C[C@@]21C [altrenogest]	0.538
C1CCc2nnnn2CC1 [pentetrazole]	-0.241
C=CCN=C=S [allylisothiocyanate]	-0.0259
C[C@H](N)[C@H](O)c1ccc(O)c(O)c1 [levonordefrin]	0.283
CC(CCc1ccccc1)NC(C)C(O)c1ccc(O)cc1 (stereo not drawn) [Nylidrin hydrochloride]	-0.0328
Nc1nc(N)nc(NC2CC2)n1 [cyromazine]	0.407
C[N+]1(C)CCCC(OC(=O)C(O)(c2ccccc2)c2ccccc2)C1 (stereo not drawn) [mepenzolate bromide]	0.314
CC(O)(CS(=O)(=O)c1ccc(F)cc1)C(=O)Nc1ccc(C#N)c(C(F)(F)F)c1 (stereo not drawn) [bicalutamide]	-0.087
O=C(O)CCCc1ccc(N(CCCl)CCCl)cc1 [chlorambucil]	0.53

SMILES	MUC1 transcript change (Z-score)
c1ccc2c(c1)sc1ccccc12 [dibenzothiophene]	-1.11
Cc1cc(O)ccc1Cl [chlorocresol]	-4.11
C#CCN(C)C(C)Cc1ccccc1 (stereo not drawn) [selegiline hydrochloride]	0.734
Cc1cc(C(C#N)c2ccc(Cl)cc2)c(Cl)cc1NC(=O)c1cc(I)cc(I)c1O (stereo not drawn) [closantel]	0.637
O=C1[O][Pt]2([NH][C@@H]3CCCC[C@H]3[NH]2)[O]C1=O [oxaliplatin]	1.03
COc1ccc(CN2CCNCC2)c(OC)c1OC [trimetazidine dihydrochloride]	-0.603
Cc1ccc(/N=C/N(C)/C=N/c2ccc(C)cc2C)c(C)c1 [amitraz]	0.895
CC[C@H]1C2CC3[C@@H]4N(C)c5ccccc5[C@]45C[C@@H](C2C5O)N3[C@@H]1O (stereo partly drawn) [ajmaline]	1.07
CC(Cc1ccc(O)cc1)NCC(O)c1cc(O)cc(O)c1 (stereo not drawn) [fenoterol hydrobromide]	0.127
OC[C@@H](O)[C@H]1O[C@@H]2O[C@H](C(Cl)(Cl)Cl)O[C@@H]2[C@H]1O [chloralose]	-0.153
COc1ccc(O)c(C(C)(C)C)c1 [butylated hydroxyanisole]	0.227
CC(C)N(CCC(C(N)=O)(c1ccccc1)c1ccccn1)C(C)C (stereo not drawn) [Disopyramide phosphate]	0.361
COc1ccc(C(=O)N2CCCC2=O)cc1 [Aniracetam]	1.12
CC(C)C[C@H](CN)CC(=O)O [pregabalin]	0.409
CN(C)C(=S)SSC(=S)N(C)C [thiram]	1.16
CC(C)(C)NCC(O)c1ccccc1Cl (stereo not drawn) [tulobuterol]	-0.166
CCC(C)(C)O [amylene hydrate]	0.704
CNC(C)C(O)c1ccccc1 (stereo not drawn) [racephedrine hydrochloride]	0.221
COc1cccc([C@]2(O)CCCC[C@H]2CN(C)C)c1 [tramadol hydrochloride]	0.377
[N-]=[N+]=CC(=O)OCC(N)C(=O)O (stereo not drawn) [azaserine]	0.416
CCn1cc(C(=O)O)c(=O)c2cc3c(cc21)OCO3 [oxolinic acid]	-1.25

SMILES	MUC1 transcript change (Z-score)
CN1C[C@H](C(=O)N[C@]2(C)O[C@@]3(O)C4CCCN4C(=O)[C@H](Cc4ccccc4)N3C2=O)C=C2c3cccc4[nH]cc(c34)C[C@H]21 (stereo partly drawn) [ergotamine tartrate]	0.864
CNC(C)[C@H](O)c1ccccc1 (stereo partly drawn) [ephedrine (1r,2s) hydrochloride]	0.708
Nc1ccc([As](=O)(O)O)cc1 [arsanilic acid]	0.348
Clc1ccc(C(OCCN2CCCCC2)c2ccccc2)cc1 (stereo not drawn) [cloperastine hydrochloride]	-0.254
C[C@@H](CO)NC(=O)[C@@H]1C=C2c3cccc4[nH]cc(c34)C[C@H]2N(C)C1 [ergonovine maleate]	-0.921
O=[N+]([O-])C(Br)(CO)CO [bronopol]	-1.41
O=C(OC1CC2CCC(C1)[N+]21CCCC1)C(O)(c1ccccc1)c1ccccc1 (stereo not drawn) [trospium chloride]	-0.693
C[N+]1([O-])C2CCC1CC(OC(=O)C(CO)c1ccccc1)C2 (stereo not drawn) [atropine oxide]	-0.222
CCC(=O)O[C@H]1CCC2C3CCC4=CC(=O)CC[C@]4(C)C3CC[C@@]21C (stereo partly drawn) [testosterone propionate]	0.931
C=CCC1(C(C)CCC)C(=O)N=C(S)NC1=O (stereo not drawn) [thiamylal sodium]	-1.07
Oc1ccc(Cl)cc1 [parachlorophenol]	0.543
NP(N)(=O)NC(=O)c1ccc(F)cc1 [flurofamide]	-4.32
NC(=O)CN1CCCC1=O [piracetam]	0.854
Oc1ccc(Cl)cc1Cc1cc(Cl)ccc1O [dichlorophene]	-1.03
CC(CC(C(N)=O)(c1ccccc1)c1ccccc1)N(C)C (stereo not drawn) [aminopentamide sulfate]	1.4
CC[C@@H](C(=O)[C@@H](C)[C@@H](O)[C@H](C)[C@@H]1O[C@@H]([C@@H](CC)C(=O)O)CC[C@@H]1C)[C@H]1OC2(C=C[C@@H](O)[C@]3(CC[C@@](C)([C@H]4CC[C@](O)(CC)[C@H](C)O4)O3)O2)[C@H](C)C[C@@H]1C (stereo partly drawn) [salinomycin, sodium]	2.78
CCOP(=S)(OCC)Oc1cc(C)nc(C(C)C)n1 [diazinon]	0.303
CCC(COC(=O)c1cc(OC)c(OC)c(OC)c1)(c1ccccc1)N(C)C (stereo not drawn) [trimebutine maleate]	-0.269
COc1cc2c(c(OC)c1OC)-c1ccc(OC)c(=O)cc1[C@@H](NC(C)=O)CC2 [colchicine]	-1.15
C[C@]12CC[C@@H]3c4ccc(OC(=O)N(CCCl)CCCl)cc4CC[C@H]3[C@@H]1CC[C@@H]2O [estramustine]	0.91

By substructure, the entries above containing an NH in an aromatic ring (three)
SMILES	MUC1 transcript change (Z-score)
CN1C[C@H](C(=O)N[C@]2(C)O[C@@]3(O)[C@@H]4CCCN4C(=O)[C@H](Cc4ccccc4)N3C2=O)C[C@@H]2c3cccc4[nH]cc(c34)C[C@H]21 [Dihydroergotamine methanesulfonate]	0.763
CN1C[C@H](C(=O)N[C@]2(C)O[C@@]3(O)C4CCCN4C(=O)[C@H](Cc4ccccc4)N3C2=O)C=C2c3cccc4[nH]cc(c34)C[C@H]21 (stereo partly drawn) [ergotamine tartrate]	0.864
C[C@@H](CO)NC(=O)[C@@H]1C=C2c3cccc4[nH]cc(c34)C[C@H]2N(C)C1 [ergonovine maleate]	-0.921
